Source: PMC8620773
No constants are given. Whether binding was seen depends on the method and setting. Binding seen in cells or lysates may run through a third protein. Some results given as binding are weak or reduced against the parent protein; the word gives no strength.

Sequences of proteins named here, by UniProt entry; tags and fusion partners are left off. A change or cut given only in a name is not applied to a line headed by its entry.
UniProt P28066: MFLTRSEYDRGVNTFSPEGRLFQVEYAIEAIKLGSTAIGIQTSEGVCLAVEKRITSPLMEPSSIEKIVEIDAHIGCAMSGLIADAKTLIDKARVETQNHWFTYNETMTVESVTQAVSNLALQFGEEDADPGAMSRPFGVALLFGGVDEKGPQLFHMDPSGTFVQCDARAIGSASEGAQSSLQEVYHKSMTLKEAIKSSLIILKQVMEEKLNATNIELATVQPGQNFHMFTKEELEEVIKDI

Biological target: α5 (WT)-TBHA (UniProt P28066)
Assay: pull-down; High Capacity Streptavidin Agarose captures the biotinylated TBHA-tagged bait from lysates of stably expressing 293T cells (TBSN buffer: 50 mM Tris pH 7.5, 125 mM NaCl, 0.5% NP-40, 1 mM ATP, 5 mM MgCl2), 4 °C; Western blot; cells with or without nocodazole (100 ng/mL, 16 h)

Substance | binding
HA-PLK1 (from UniProt P53350 1-603) (enzyme) | binds
endogenous α5 (from UniProt P28066-1 1-241) | binds
